Drawing on the supplement of paper PMC10849652, this text covers log2 fold change for 23 targets.

Protein sequences, listed by entry. Tags and fused reporters are not part of them. Lines headed by an entry give the natural chain unless they say otherwise; changes in a name come on top.
UniProt Q13948: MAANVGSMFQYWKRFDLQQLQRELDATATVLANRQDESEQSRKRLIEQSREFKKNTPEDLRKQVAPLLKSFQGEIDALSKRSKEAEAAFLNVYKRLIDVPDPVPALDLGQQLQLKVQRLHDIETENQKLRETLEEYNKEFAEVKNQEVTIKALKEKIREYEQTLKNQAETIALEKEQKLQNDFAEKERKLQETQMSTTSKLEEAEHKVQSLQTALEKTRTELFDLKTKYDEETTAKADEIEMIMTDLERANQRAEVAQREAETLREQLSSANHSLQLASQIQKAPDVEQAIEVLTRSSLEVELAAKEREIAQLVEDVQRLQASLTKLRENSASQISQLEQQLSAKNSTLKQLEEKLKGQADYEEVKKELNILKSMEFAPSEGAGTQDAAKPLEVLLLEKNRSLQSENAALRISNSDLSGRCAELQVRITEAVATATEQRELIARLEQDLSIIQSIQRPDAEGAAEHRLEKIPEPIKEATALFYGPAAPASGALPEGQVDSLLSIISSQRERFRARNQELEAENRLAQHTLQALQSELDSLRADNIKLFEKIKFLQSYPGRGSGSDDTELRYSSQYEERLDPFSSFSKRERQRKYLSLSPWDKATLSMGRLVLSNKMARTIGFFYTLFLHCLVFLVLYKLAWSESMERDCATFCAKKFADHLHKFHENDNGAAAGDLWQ
UniProt Q9H175: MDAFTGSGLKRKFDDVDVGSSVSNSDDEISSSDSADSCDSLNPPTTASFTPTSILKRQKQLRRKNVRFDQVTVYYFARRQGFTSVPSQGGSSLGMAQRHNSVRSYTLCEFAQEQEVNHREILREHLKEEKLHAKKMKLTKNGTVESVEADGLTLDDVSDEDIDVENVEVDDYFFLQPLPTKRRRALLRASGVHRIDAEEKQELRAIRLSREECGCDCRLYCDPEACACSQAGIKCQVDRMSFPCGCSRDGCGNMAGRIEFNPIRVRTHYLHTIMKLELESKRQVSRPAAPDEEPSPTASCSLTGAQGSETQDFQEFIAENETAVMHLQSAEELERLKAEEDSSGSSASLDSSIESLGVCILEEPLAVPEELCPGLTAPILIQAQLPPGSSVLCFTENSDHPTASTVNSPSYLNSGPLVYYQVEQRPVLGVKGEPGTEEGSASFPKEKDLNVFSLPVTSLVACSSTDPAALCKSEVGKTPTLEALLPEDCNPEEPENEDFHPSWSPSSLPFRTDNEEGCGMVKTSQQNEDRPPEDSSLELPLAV
UniProt Q9UBT7: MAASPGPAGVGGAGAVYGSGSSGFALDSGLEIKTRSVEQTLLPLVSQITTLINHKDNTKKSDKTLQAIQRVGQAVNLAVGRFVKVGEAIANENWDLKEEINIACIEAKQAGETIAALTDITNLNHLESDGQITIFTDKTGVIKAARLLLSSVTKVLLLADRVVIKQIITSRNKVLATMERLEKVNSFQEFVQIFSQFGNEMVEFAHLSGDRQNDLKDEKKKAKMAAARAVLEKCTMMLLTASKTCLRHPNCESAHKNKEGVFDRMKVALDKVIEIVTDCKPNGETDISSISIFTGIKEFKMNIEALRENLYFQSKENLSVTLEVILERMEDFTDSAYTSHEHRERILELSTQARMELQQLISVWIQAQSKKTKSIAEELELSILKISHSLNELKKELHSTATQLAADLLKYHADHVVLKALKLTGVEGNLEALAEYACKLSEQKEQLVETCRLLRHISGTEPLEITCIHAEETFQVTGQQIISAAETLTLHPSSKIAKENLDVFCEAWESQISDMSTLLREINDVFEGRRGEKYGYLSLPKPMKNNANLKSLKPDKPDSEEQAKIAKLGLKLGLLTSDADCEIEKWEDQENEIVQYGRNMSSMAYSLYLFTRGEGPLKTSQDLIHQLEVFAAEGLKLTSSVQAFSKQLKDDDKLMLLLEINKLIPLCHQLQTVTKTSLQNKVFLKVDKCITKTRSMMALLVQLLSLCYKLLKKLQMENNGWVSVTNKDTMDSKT
UniProt O95476: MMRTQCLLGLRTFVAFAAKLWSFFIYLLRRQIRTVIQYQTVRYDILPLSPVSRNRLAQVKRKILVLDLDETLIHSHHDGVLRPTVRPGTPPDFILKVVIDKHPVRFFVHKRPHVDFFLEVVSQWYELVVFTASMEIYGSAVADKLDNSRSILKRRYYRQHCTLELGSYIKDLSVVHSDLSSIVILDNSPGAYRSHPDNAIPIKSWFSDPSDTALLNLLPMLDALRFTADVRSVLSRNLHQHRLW
UniProt Q9GZU7: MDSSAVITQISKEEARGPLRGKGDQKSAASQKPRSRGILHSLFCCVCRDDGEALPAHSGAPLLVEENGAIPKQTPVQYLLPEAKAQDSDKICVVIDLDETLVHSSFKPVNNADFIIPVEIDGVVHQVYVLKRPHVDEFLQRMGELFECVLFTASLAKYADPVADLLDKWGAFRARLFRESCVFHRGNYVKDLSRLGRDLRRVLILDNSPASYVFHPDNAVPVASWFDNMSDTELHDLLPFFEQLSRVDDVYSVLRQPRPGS
UniProt Q9NSA3: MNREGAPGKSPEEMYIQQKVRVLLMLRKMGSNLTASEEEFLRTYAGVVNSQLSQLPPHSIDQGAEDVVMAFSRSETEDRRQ
UniProt Q8N6G5: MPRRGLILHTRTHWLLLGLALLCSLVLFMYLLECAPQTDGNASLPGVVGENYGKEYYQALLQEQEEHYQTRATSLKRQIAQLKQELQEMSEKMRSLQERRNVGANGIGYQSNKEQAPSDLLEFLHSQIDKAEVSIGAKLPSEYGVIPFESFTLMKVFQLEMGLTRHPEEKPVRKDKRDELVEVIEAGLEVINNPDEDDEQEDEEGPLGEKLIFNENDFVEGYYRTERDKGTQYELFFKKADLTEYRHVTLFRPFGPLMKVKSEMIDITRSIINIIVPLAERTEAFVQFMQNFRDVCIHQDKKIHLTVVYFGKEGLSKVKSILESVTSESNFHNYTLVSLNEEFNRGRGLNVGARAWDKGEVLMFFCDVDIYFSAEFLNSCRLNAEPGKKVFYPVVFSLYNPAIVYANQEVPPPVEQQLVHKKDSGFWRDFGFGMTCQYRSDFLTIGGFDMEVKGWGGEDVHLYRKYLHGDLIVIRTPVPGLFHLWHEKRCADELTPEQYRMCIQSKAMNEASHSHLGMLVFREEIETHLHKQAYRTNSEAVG
UniProt P25774, whole entry, looked up: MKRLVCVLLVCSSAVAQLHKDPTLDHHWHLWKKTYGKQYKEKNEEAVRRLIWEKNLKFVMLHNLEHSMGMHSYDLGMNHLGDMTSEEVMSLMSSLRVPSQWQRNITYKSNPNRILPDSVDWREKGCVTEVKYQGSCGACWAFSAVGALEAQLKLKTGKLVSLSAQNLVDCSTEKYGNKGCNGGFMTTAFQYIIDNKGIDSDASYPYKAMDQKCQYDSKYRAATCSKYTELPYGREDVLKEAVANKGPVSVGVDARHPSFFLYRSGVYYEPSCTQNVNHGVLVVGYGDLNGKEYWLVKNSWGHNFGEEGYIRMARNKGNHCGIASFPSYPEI
UniProt Q9Y2S2: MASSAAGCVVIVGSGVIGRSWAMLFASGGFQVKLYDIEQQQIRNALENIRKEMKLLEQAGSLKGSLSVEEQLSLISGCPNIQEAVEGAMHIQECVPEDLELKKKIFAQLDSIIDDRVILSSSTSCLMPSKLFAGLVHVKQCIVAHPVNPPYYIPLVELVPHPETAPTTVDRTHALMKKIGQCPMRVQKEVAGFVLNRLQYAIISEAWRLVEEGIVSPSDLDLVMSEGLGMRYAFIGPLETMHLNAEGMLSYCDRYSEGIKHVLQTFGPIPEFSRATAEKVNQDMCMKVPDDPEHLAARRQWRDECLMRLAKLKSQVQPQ
UniProt Q9Y600: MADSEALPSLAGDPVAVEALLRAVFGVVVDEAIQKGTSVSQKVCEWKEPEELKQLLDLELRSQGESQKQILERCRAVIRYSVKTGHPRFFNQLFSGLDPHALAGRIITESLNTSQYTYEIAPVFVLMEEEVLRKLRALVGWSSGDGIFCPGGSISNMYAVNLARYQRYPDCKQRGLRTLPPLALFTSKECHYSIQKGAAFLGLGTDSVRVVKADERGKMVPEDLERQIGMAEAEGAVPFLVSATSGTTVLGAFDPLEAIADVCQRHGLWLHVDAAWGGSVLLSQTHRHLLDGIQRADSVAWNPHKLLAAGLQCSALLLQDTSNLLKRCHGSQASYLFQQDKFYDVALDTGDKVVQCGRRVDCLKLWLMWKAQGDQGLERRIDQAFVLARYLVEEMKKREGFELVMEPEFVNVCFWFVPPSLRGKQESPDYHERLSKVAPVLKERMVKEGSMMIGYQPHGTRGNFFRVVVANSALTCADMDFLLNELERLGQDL
UniProt Q86T23: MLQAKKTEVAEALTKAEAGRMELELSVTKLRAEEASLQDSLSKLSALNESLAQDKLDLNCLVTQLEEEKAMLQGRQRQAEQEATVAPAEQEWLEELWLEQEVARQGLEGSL
UniProt Q9NQC7: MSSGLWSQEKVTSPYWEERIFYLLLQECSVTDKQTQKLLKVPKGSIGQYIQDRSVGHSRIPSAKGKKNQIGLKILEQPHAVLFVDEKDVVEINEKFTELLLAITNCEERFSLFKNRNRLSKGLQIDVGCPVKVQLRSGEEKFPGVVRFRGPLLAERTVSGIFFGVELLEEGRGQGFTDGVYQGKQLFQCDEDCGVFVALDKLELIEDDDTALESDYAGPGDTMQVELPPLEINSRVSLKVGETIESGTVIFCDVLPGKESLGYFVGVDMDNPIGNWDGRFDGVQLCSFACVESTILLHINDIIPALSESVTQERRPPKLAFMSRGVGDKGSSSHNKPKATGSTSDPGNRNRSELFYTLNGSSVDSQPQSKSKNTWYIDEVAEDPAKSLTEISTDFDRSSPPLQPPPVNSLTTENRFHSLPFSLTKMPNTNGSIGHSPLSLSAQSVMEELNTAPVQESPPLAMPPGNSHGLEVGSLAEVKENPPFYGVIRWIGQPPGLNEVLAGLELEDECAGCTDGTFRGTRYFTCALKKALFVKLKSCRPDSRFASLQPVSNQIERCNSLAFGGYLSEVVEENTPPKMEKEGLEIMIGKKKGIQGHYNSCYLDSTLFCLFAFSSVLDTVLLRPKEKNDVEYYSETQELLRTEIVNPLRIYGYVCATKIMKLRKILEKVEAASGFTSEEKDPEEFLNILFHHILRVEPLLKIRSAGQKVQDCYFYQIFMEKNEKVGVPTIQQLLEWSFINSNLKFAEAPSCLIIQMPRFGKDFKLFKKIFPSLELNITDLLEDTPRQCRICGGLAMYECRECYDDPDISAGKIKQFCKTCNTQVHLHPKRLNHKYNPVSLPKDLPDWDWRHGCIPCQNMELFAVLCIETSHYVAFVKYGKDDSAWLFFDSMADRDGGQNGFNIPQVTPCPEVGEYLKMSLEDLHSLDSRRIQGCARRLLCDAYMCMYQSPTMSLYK
UniProt Q9UKG9: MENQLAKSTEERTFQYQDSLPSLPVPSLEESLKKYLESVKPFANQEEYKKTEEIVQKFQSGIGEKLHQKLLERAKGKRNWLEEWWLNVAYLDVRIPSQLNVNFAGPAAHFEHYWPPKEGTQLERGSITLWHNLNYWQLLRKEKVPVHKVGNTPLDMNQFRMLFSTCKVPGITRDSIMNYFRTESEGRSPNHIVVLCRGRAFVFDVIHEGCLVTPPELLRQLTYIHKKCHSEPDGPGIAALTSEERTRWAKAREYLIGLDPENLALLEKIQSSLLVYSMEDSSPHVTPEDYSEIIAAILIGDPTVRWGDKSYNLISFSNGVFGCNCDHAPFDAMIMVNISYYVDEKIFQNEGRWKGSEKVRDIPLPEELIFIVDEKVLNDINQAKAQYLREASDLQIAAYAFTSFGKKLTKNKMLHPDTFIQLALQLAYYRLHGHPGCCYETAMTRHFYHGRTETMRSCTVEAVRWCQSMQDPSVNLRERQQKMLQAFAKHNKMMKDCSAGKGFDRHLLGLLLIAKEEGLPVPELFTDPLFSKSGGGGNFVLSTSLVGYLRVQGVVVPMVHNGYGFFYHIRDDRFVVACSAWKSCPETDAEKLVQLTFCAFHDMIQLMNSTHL
UniProt Q8NI51: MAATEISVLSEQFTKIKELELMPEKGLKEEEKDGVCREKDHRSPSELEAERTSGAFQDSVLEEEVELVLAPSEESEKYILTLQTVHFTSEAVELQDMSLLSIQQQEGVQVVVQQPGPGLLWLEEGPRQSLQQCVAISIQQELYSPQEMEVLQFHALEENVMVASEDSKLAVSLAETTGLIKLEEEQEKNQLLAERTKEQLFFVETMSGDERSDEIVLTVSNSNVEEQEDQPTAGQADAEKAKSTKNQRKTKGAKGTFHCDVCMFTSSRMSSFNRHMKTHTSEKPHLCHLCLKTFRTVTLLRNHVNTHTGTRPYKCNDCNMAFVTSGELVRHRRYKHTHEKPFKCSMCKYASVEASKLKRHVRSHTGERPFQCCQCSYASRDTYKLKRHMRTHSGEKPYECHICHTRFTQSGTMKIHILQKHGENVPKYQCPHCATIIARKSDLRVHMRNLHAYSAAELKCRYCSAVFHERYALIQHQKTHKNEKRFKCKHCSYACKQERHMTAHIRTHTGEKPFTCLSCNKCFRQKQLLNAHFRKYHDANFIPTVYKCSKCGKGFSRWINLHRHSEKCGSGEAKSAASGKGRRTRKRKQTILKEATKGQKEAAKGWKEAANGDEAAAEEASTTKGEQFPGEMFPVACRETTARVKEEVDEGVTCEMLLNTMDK

The list shows a part of the results.

Compound in the first assay: CC1=C(C2=C(C=C1)C(=O)C3=CC=CC=C3N2CCCN)C
Put plainly: log2 fold change, soluble protein after heating vs DMSO (PISA); higher = thermal stabilisation; K562 lysate, 10 uM; active = over 0.2 and 3.5 SD of the protein, either way, in both replicates (recomputed). In a few lines: (§1)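 To prepare the extract, K562 pellets were dounce-homogenised in PBS pH 7.4 with 1 mM MgCl2, giving crude material at 1 mg/mL protein. This was treated with 10 μM compound for 30 min, then heated in aliquots for 3 min over 48°C-58°C before pooling and addition of NP-40 to 0.5% at 4°C. Centrifugation at 21,000xg for 90 min left soluble protein in the supernatant, which TMTpro 16plex LC-MS/MS quantified with equalised channel sums. Results are log-two fold changes in thermal stability compared with solvent controls, from duplicates.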
For the target CUX1 isoform 2 (UniProt Q13948), the log2 fold change was inactive: -0.027.
The same measure, in the same setting: the result for CSRNP2 (UniProt Q9H175) reads inactive: 0.203.
Still for that read-out and setting: as for CTSG (UniProt P08311), the figure is inactive: 0.04; as for CTNNAL1 (UniProt Q9UBT7), inactive: -0.266; as for CTNS isoform 2 (UniProt O60931), inactive: 0.014.
The same measure, in the same setting: as for CXXC5 (UniProt Q7LFL8), the figure is inactive: -0.016; as for CRISP3 isoform 3 (UniProt P54108), inactive: -0.378.
For the target CRAMP1 (UniProt Q96RY5), the log2 fold change is inactive: 0.097.
Consider CTDNEP1 (UniProt O95476), for which the log2 fold change was inactive: -0.015.
Still for that read-out and setting: as for CTDSP1 (UniProt Q9GZU7), the figure is inactive: 0.037; as for CTF1 (UniProt Q16619), inactive: 0.068.
Take CTNNBIP1 (UniProt Q9NSA3): the log2 fold change is inactive: 0.074.
On the same count and under the same terms, as for CSGALNACT2 (UniProt Q8N6G5), the figure is inactive: -0.132; as for CTSS (UniProt P25774), inactive: -0.036.
On the same count and under the same terms, as for CRYL1 (UniProt Q9Y2S2), the figure is inactive: -0.127; as for CSNK1A1 isoform 3 (UniProt P48729), inactive: -0.061.

Compound in the next assay: CC1=C(C=C(C=C1)NC(=O)C2=CC(=CC=C2)C(C)(C)C#N)NC3=CC4=C(C=C3)N=CN(C4=O)C
The assay is described as above. In a few lines:
as §1
As for CUX1 isoform 2 (UniProt Q13948), the log2 fold change is inactive: 0.385.
The same measure, in the same setting: the result for CSAD isoform 3 (UniProt Q9Y600) reads inactive: -0.027.
Same read-out and setting: as for CTSG (UniProt P08311), the figure is inactive: -0.205; as for CROCCP2 (UniProt Q86T23), inactive: 0.028.
Consider CTNNAL1 (UniProt Q9UBT7), for which the log2 fold change was inactive: 0.06.
On the same count and under the same terms, as for CTNS isoform 2 (UniProt O60931), the figure is inactive: 0.103; as for CYLD (UniProt Q9NQC7), inactive: 0.055; as for CSRP2 (UniProt Q16527), inactive: 0.271.
As for CROT isoform 3 (UniProt Q9UKG9), the log2 fold change was inactive: -0.034.
CST1 (UniProt P01037): the log2 fold change is inactive: -0.066.
Consider CTDNEP1 (UniProt O95476), for which the log2 fold change is inactive: -0.054.
The same measure, in the same setting: the result for CTDSP1 (UniProt Q9GZU7) reads inactive: -0.036.
Same read-out and setting: the result for CTF1 (UniProt Q16619) reads inactive: 0.11.
Same read-out and setting: the result for CTCFL isoform 7 (UniProt Q8NI51) reads inactive: 0.156.
Regarding CSGALNACT2 (UniProt Q8N6G5), the log2 fold change was inactive: 0.135.
Same read-out and setting: the result for CRYL1 (UniProt Q9Y2S2) reads inactive: -0.13.
